Data: the NIST ThermoML archive (doi:10.1016/j.fluid.2008.01.024)
Numbers after ± are expanded uncertainties.

Key:
[1] = relative permittivity at zero frequency (dimensionless); conditions: 303.15 K; 101 kPa; Liquid; capacitive measurement method
[2] = relative permittivity at zero frequency (dimensionless); xn = mol fraction of the nth substance listed; conditions: 303.15 K; 101 kPa; Liquid; capacitive measurement method; x2 = 0

Compound	relative permittivity at zero frequency [1]	relative permittivity at zero frequency [2]
CC(=O)N(C)C [N,N-dimethylethanamide]	37.72 ± 0.23	–
CC(=O)N(C)C [N,N-dimethylethanamide] + OCC(O)CO	–	37.72 ± 0.23
